Some entries share one result that the patent states for a list of compounds.
System: staphylococci (strain not given)
Assay: Checkerboard analysis of PlySs2/CF-301 with AMPs, antimicrobial proteins and albumins in heat-inactivated human serum
Format: cell-based, S. aureus

| Substance | ΣFICavg (in combination with PlySs2/CF-301) | ΣFICavg (in combination with PlySs2/CF-301, listed as RabSA) |
| --- | --- | --- |
| HSA: human serum albumin, purified or recombinantly expressed; SEQ ID NO:1 | ≤ 0.1 |  |
| Serum albumin (Rabbit, from serum): rabbit serum albumin |  | ≤ 0.1 |

From patent US20220023399A1, “BLOOD COMPONENT POTENTIATION OF LYTIC PROTEIN ANTI-BACTERIAL ACTIVITY AND METHODS AND USES THEREOF” (priority 2017, published 2022)
